# This is one part of the list.
# Target: T1, OsSMF1 (Oryza sativa, UniProt Q6ZLB0 1-436)
# T1 sequence: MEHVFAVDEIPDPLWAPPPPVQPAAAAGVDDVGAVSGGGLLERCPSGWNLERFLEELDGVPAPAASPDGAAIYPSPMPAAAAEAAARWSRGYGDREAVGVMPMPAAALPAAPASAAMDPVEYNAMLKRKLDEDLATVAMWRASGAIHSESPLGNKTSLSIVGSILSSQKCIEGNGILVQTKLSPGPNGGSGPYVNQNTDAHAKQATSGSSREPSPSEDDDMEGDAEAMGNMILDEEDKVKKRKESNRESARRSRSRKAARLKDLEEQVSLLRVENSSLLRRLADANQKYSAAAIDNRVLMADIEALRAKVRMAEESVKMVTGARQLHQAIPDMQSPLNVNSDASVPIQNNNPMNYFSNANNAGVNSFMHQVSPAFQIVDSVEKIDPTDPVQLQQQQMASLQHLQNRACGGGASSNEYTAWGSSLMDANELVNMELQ
# Test: protein-binding microarray (RPBM); PBS, 2% BSA, 51.3 ng/ul salmon testes DNA, 50 uM zinc acetate, 200 nM TF, 25 C, 1 h; high values mean tight binding
# Conditions: protein: recombinant; tags: N-terminal polyhistidine and DsRed monomer fusion (pET32a); chain copies: 2; label: CyDye5-dUTP incorporated in the synthesized complementary strand; 3' TTTTT single-stranded linker to array surface; dsDNA, one strand shown
# In short: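 Binding signal is reported as fluorescence intensity per feature (arbitrary units) from an Axon 4000B scanner. Incubation used 200 nM of each Ni–NTA-purified, N-terminally polyhistidine- and DsRed-fused transcription factor from E. coli BL21-CodonPlus on a double-stranded custom Agilent array for 1 h at 25 °C, with 50 µM zinc acetate in the buffer, followed by washing.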
row,Sequence,binding signal
1,TTTGCTTGCGAGTTGCGACAGTGACGGAGAGAGAGAGAGACGGAGTCACCTAGTGCAG,3460 fluorescence intensity (a.u.)
2,CTAGCTGTATGCCGCCTTTATAACGCGGCGAGGCAGCCAGCGGAGTCACCTAGTGCAG,3900 fluorescence intensity (a.u.)
3,GGTGTGGTGATGCTACCCCAAAGTTGAAACCTCGTCAACTCGGAGTCACCTAGTGCAG,4300 fluorescence intensity (a.u.)
4,ACTTGGTGCACTATTATGTAGCTCAGTTTACTACTCCAGTCGGAGTCACCTAGTGCAG,20100 fluorescence intensity (a.u.)
5,TATGTAACCCAGAAGCGCCACTGACTGTACTTTTCCCTTACGGAGTCACCTAGTGCAG,3540 fluorescence intensity (a.u.)
6,TTGACCGCTTGACGCGGAGCTCCCCGCCGGCCTCCTCCCCCGGAGTCACCTAGTGCAG,4540 fluorescence intensity (a.u.)
7,TGCAGCACGGGGTAGTTGGGTTGGGTCCGGACGCGGCGCGCGGAGTCACCTAGTGCAG,3390 fluorescence intensity (a.u.)
8,AGCGTGCCTTCCCCACGTAGCACCCAAACGCCACGCCGACCGGAGTCACCTAGTGCAG,3460 fluorescence intensity (a.u.)
9,CACCGGCGTGTACAGCTCCGACACGCTGACGCTGACCGGGCGGAGTCACCTAGTGCAG,6230 fluorescence intensity (a.u.)
10,AGGGCAAGCCGTTGACGCCAGGTGGTAGGGTTGGAGGAGGCGGAGTCACCTAGTGCAG,37800 fluorescence intensity (a.u.)
11,CTGGACATGCCACAACAAACTTGCCAGCTCAAACAGTGACCGGAGTCACCTAGTGCAG,3790 fluorescence intensity (a.u.)
12,GTATCCTGGAAACATTATTCTTGTAATTTAGCACTTAGGGCGGAGTCACCTAGTGCAG,32400 fluorescence intensity (a.u.)
13,AGCCGGTGGTCTCAACCACCTCATTTAGCCCGCTTTGCTGCGGAGTCACCTAGTGCAG,3860 fluorescence intensity (a.u.)
14,AACCGCCGATCTCCACCGTCCACGTACCCCGGCCGACCAACGGAGTCACCTAGTGCAG,5430 fluorescence intensity (a.u.)
15,GTTTTGTCCGAAGCAGCGGCTGAGTCAGCGTGGGACCCACCGGAGTCACCTAGTGCAG,13600 fluorescence intensity (a.u.)
16,TGCCGCTGTGGGCGGCCAGCATCACCGCCATCGCCGCCGGCGGAGTCACCTAGTGCAG,3230 fluorescence intensity (a.u.)
17,AGTAATGGCTAGATGACGTCACCTAGCCGTTGTAGATATCCGGAGTCACCTAGTGCAG,7830 fluorescence intensity (a.u.)
18,ATTGGTTGACGCGACGCCAATGGAGTCACGAACTGAACTGCGGAGTCACCTAGTGCAG,3400 fluorescence intensity (a.u.)
19,ACCCACACCTCGTCCCCGTCACCTCCTATATCATCGTCATCGGAGTCACCTAGTGCAG,6470 fluorescence intensity (a.u.)
20,TCGGCGGCAGAACAGGGACGAAATGCAGCCACCGCACCAGCGGAGTCACCTAGTGCAG,3180 fluorescence intensity (a.u.)
21,TAGTCAAAGGAGCCACGTAGACGCCATATCAGCTAAAACGCGGAGTCACCTAGTGCAG,8470 fluorescence intensity (a.u.)

row,Sequence,binding signal
1,TGTTCTTCGACAATCCAGTCATCTTACATAGAAACGGATACGGAGTCACCTAGTGCAG,3930 fluorescence intensity (a.u.)
2,CGTTATTCCTCCACCAGGTGTATCTGACTTGGCAAACCTTCGGAGTCACCTAGTGCAG,5500 fluorescence intensity (a.u.)
3,CTCGAGGGGCTCGGGCGTGTCGCGCGTGGCGAAGAGGCGCCGGAGTCACCTAGTGCAG,3800 fluorescence intensity (a.u.)
4,TAGAGAAAGCAAAGCACATACATAGGCTAATTCTCCTTTACGGAGTCACCTAGTGCAG,39200 fluorescence intensity (a.u.)
5,CGGGAGGAGGGAGGTTGTTTCGTCTGGGGTTTGATTGGGACGGAGTCACCTAGTGCAG,3780 fluorescence intensity (a.u.)
6,AGGAGCATTTTGTAAATTAATGCGTGTACCATCATTGTAGCGGAGTCACCTAGTGCAG,3220 fluorescence intensity (a.u.)
7,CTTGCCCCGCGCCACGCCACGGCACGCCACGCCACCGCCCCGGAGTCACCTAGTGCAG,6220 fluorescence intensity (a.u.)
8,TCAGTAGTGTTGTGATCGCATCATCAATTCATTATTCATCCGGAGTCACCTAGTGCAG,4200 fluorescence intensity (a.u.)
9,TTTCTGCTTACAAGGTTTTCAGCATTTGAGCAATTGACCTCGGAGTCACCTAGTGCAG,3660 fluorescence intensity (a.u.)
10,ACCGCCAGCAGCGGCGACCTCGTCATCGATCTCGCCTCACCGGAGTCACCTAGTGCAG,8230 fluorescence intensity (a.u.)
11,TATGTAGTCGTGGCCTTCATGCAGAGCATCATCTTCCTCCCGGAGTCACCTAGTGCAG,20600 fluorescence intensity (a.u.)
12,TATTTATAGCCCATTTCCATGGCTCCCGCACCACACTCCCCGGAGTCACCTAGTGCAG,16600 fluorescence intensity (a.u.)
13,TATCATTTGTCAAACACACCCATATCCCATTTGCCAATCACGGAGTCACCTAGTGCAG,3890 fluorescence intensity (a.u.)
14,GCCATTATTACGGGTCCATGCCAACACATGTGTAACACAACGGAGTCACCTAGTGCAG,4200 fluorescence intensity (a.u.)
15,TGACCTGAAGATATTTAATGTAAAATTTTATCTCTAATGACGGAGTCACCTAGTGCAG,18200 fluorescence intensity (a.u.)
16,TACTACGACGGGAAGGCCGGGAGGTACGTGGGGAAGCAAGCGGAGTCACCTAGTGCAG,3410 fluorescence intensity (a.u.)
17,GGGGCCACATCGTCAGTGAAACGGACGGGTATAGGGTTAGCGGAGTCACCTAGTGCAG,3270 fluorescence intensity (a.u.)
18,ATGCTACACGTACATCCGAAATGTCACGCCGTTGTGCATTCGGAGTCACCTAGTGCAG,4210 fluorescence intensity (a.u.)
19,GAATTGATCAATGCTCATCACTGTCACTTGAGAACAGATGCGGAGTCACCTAGTGCAG,3580 fluorescence intensity (a.u.)
20,ATCAGCTAAGGCCAATCGGTGGATTACACACATTGGGTTCCGGAGTCACCTAGTGCAG,47600 fluorescence intensity (a.u.)
21,TCATGGCAGCCGACGTCTCCATCCCCACGCCGCCTCTCTGCGGAGTCACCTAGTGCAG,3500 fluorescence intensity (a.u.)

# Part of the list above, as tab-separated lines:
row	Sequence	binding signal
4	TAGAGAAAGCAAAGCACATACATAGGCTAATTCTCCTTTACGGAGTCACCTAGTGCAG	39200 fluorescence intensity (a.u.)
5	CGGGAGGAGGGAGGTTGTTTCGTCTGGGGTTTGATTGGGACGGAGTCACCTAGTGCAG	3780 fluorescence intensity (a.u.)
6	AGGAGCATTTTGTAAATTAATGCGTGTACCATCATTGTAGCGGAGTCACCTAGTGCAG	3220 fluorescence intensity (a.u.)
7	CTTGCCCCGCGCCACGCCACGGCACGCCACGCCACCGCCCCGGAGTCACCTAGTGCAG	6220 fluorescence intensity (a.u.)
8	TCAGTAGTGTTGTGATCGCATCATCAATTCATTATTCATCCGGAGTCACCTAGTGCAG	4200 fluorescence intensity (a.u.)
9	TTTCTGCTTACAAGGTTTTCAGCATTTGAGCAATTGACCTCGGAGTCACCTAGTGCAG	3660 fluorescence intensity (a.u.)
10	ACCGCCAGCAGCGGCGACCTCGTCATCGATCTCGCCTCACCGGAGTCACCTAGTGCAG	8230 fluorescence intensity (a.u.)
11	TATGTAGTCGTGGCCTTCATGCAGAGCATCATCTTCCTCCCGGAGTCACCTAGTGCAG	20600 fluorescence intensity (a.u.)
12	TATTTATAGCCCATTTCCATGGCTCCCGCACCACACTCCCCGGAGTCACCTAGTGCAG	16600 fluorescence intensity (a.u.)
13	TATCATTTGTCAAACACACCCATATCCCATTTGCCAATCACGGAGTCACCTAGTGCAG	3890 fluorescence intensity (a.u.)
14	GCCATTATTACGGGTCCATGCCAACACATGTGTAACACAACGGAGTCACCTAGTGCAG	4200 fluorescence intensity (a.u.)
15	TGACCTGAAGATATTTAATGTAAAATTTTATCTCTAATGACGGAGTCACCTAGTGCAG	18200 fluorescence intensity (a.u.)
